Holding throughout (test): two-hybrid; LexA-Cdc1 bait (pBTM116 or pBTM116BN) with Gal4-Pol3 prey and co-expressed c-myc-tagged Cdc27 (pAA-Cdc27) in S. cerevisiae CTY10-5d; ONPG liquid culture beta-galactosidase assay, mean of triplicates, as percent of wild-type Cdc1
For one assay, the target named is T1, Cdc1-J12 (Schizosaccharomyces pombe, UniProt P87324 1-462, Ser-GlyValProHisSer-Ile).
T1 construct: Cdc1, S. pombe, with a pentapeptide inserted after residue 7; source: yeast two-hybrid fusion, in S. cerevisiae CTY10-5d
T1 sequence (looked up): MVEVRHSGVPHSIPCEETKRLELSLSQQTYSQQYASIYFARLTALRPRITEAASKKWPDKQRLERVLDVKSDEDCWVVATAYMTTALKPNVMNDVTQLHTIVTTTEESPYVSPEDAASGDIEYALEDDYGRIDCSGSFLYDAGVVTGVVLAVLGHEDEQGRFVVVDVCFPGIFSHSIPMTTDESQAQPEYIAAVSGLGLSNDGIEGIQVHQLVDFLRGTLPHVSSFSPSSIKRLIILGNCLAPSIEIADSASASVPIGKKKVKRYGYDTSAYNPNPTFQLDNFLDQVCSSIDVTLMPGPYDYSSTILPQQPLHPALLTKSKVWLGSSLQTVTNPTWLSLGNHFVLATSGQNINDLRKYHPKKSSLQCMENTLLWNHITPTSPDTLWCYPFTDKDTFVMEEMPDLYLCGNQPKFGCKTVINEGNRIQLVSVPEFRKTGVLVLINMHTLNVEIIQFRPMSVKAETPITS

The next assay has as its target T2, Cdc1-J16 (Schizosaccharomyces pombe, UniProt P87324 1-462, Val-GlyGlyThrProVal-Asp).
T2 construct: Cdc1, S. pombe, with a pentapeptide inserted after residue 160; source: yeast two-hybrid fusion, in S. cerevisiae CTY10-5d
T2 sequence (looked up): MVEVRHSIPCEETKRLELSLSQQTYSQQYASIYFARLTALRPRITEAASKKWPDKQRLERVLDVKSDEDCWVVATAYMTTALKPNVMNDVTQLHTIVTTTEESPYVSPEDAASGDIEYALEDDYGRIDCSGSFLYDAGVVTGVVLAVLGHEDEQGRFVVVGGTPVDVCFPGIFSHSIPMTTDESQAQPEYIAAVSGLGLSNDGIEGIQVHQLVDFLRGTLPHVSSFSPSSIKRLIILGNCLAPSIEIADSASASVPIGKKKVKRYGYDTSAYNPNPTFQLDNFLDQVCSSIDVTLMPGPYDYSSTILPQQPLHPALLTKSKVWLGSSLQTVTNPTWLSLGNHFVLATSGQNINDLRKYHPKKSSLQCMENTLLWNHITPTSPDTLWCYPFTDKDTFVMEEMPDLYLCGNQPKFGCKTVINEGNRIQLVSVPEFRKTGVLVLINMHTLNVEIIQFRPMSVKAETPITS

The target of a further assay is T3, Cdc1-J1 (Schizosaccharomyces pombe, UniProt P87324 1-462, Thr-GlyValProLeuThr-Gly).
T3 construct: Cdc1, S. pombe, with a pentapeptide inserted after residue 141; source: yeast two-hybrid fusion, in S. cerevisiae CTY10-5d
T3 sequence (looked up): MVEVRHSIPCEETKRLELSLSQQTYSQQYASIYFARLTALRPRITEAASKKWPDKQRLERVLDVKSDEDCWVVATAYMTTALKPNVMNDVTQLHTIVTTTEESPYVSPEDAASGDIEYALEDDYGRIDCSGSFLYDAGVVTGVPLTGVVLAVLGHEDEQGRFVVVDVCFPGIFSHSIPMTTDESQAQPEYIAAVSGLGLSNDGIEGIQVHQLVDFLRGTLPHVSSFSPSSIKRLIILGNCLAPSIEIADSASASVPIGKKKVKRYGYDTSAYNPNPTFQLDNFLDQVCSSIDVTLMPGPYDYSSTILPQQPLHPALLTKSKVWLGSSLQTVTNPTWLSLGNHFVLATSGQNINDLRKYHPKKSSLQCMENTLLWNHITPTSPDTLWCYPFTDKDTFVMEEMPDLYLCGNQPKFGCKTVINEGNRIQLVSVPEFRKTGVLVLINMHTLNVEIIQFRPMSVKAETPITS

The next assay has as its target T4, Cdc1-A6 (Schizosaccharomyces pombe, UniProt P87324 1-462, Pro329Ala).
T4 construct: Cdc1, S. pombe, point mutant; source: yeast two-hybrid fusion, in S. cerevisiae CTY10-5d
T4 sequence (looked up): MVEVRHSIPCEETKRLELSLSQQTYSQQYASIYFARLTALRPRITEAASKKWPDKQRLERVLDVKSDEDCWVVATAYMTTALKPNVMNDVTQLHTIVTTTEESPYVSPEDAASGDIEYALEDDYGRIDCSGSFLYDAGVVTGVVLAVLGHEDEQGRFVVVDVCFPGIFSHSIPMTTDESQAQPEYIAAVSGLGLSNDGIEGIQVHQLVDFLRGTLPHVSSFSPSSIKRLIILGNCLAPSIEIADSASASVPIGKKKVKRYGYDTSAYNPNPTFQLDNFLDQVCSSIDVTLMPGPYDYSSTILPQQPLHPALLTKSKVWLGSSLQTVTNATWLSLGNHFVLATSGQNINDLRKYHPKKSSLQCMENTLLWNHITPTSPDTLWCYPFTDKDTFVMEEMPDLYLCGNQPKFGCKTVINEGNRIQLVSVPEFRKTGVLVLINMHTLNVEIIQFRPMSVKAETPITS

In another assay the target is T5, Cdc1-E2 (Schizosaccharomyces pombe, UniProt P87324 1-26).
T5 construct: Cdc1, S. pombe, truncated after amino acid 26 by a 16 nt insertion; residues coded by the 16 nt insertion before the stop codon (printed as GlyValProLysTer); source: yeast two-hybrid fusion, in S. cerevisiae CTY10-5d
T5 chain: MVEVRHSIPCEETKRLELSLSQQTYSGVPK

Results are given in words; binding and its absence hold for the method and conditions named. Tags and fused reporters may be left off the sequences shown.

B1: Pol3 (fission yeast DNA polymerase delta catalytic subunit) (natural protein, Schizosaccharomyces pombe, UniProt P30316 1-1086, looked up)
chain: MTDRSSNEGVVLNKENYPFPRRNGSIHGEITDVKRRRLSERNGYGDKKGSSSKEKTSSFEDELAEYASQLDQDEIKSSKDQQWQRPALPAINPEKDDIYFQQIDSEEFTEGSVPSIRLFGVTDNGNSILVHVVGFLPYFYVKAPVGFRPEMLERFTQDLDATCNGGVIDHCIIEMKENLYGFQGNEKSPFIKIFTTNPRILSRARNVFERGEFNFEELFPVGVGVTTFESNTQYLLRFMIDCDVVGMNWIHLPASKYQFRYQNRVSNCQIEAWINYKDLISLPAEGQWSKMAPLRIMSFDIECAGRKGVFPDPSIDPVIQIASIVTQYGDSTPFVRNVFCVDTCSQIVGTQVYEFQNQAEMLSSWSKFVRDVDPDVLIGYNICNFDIPYLLDRAKSLRIHNFPLLGRIHNFFSVAKETTFSSKAYGTRESKTTSIPGRLQLDMLQVMQRDFKLRSYSLNAVCSQFLGEQKEDVHYSIITDLQNGTADSRRRLAIYCLKDAYLPQRLMDKLMCFVNYTEMARVTGVPFNFLLARGQQIKVISQLFRKALQHDLVVPNIRVNGTDEQYEGATVIEPIKGYYDTPIATLDFSSLYPSIMQAHNLCYTTLLDSNTAELLKLKQDVDYSVTPNGDYFVKPHVRKGLLPIILADLLNARKKAKADLKKETDPFKKAVLDGRQLALKVSANSVYGFTGATNGRLPCLAISSSVTSYGRQMIEKTKDVVEKRYRIENGYSHDAVVIYGDTDSVMVKFGVKTLPEAMKLGEEAANYVSDQFPNPIKLEFEKVYFPYLLISKKRYAGLFWTRTDTYDKMDSKGIETVRRDNCPLVSYVIDTALRKMLIDQDVEGAQLFTKKVISDLLQNKIDMSQLVITKALSKTDYAAKMAHVELAERMRKRDAGSAPAIGDRVAYVIIKGAQGDQFYMRSEDPIYVLENNIPIDAKYYLENQLSKPLLRIFEPILGEKASSLLHGDHTRTISMAAPSVGGIMKFAVKVETCLGCKAPIKKGKTALCENCLNRSAELYQRQVAQVNDLEVRFARLWTQCQRCQGSMHQDVICTSRDCPIFYMRIAEHKKLQQSVDLLKRFDEMSW
notes: DNA polymerase delta catalytic subunit Pol3, S. pombe; prey plasmid named pACT-Pol3 in the results and pGAD2F-Pol3 in the methods; also called Gal4-Pol3; pACT-Pol3; source: yeast two-hybrid fusion, in S. cerevisiae CTY10-5d
For the molecule B1, the binding result in the assay with Cdc1-J12 is “no binding (tested: <1% of wild type (Table 1))”; in the assay with Cdc1-J16, “no binding (tested: <1% of wild type (Table 1))”; in the assay with Cdc1-J1 it was “no binding (tested: <1% of wild type (Table 1))”; in the assay with Cdc1-A6, “no binding (tested: <1% of wild type)”; with Cdc1-E2 it was “no binding (tested: <1% of wild type (Table 1))”.

Source of the values: PMC2734569, “Functional mapping of the fission yeast DNA polymerase δ B-subunit Cdc1 by site-directed and random pentapeptide insertion mutagenesis” (BMC Molecular Biology, 2009).
